± gives the standard deviation of the averaged measurements. Only a part is listed here, and it is no random draw.
Compound: Nc1ncnc2c1ncn2[C@@H]1O[C@H](COP(=O)(O)OP(=O)(O)NP(=O)(O)O)[C@@H](O)[C@H]1O [adenylyl imidodiphosphate]
Experiment: NP40-soluble protein abundance relative to vehicle (solubility fold change) (ratio); higher = more soluble protein in presence of AMP-PNP
Method in brief: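 In three independent experiments, Jurkat crude lysate made by Dounce homogenisation was treated for 10 min at room temperature and then 3 min at 37 °C with eight concentrations ranging from 0.1 to 10 mM. It was then solubilised with 0.8% NP40 plus benzonase for 60 min at 4 °C and ultracentrifuged. The supernatant was TMT-labelled for LC-MS/MS, and each value is the fold change against the detergent-processed vehicle for the same replicate, using vsn-normalised intensities.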

Sequences of proteins named here, by UniProt entry; tags and fusion partners are left off. A change or cut given only in a name is not applied to a line headed by its entry.
UniProt O43639, whole entry: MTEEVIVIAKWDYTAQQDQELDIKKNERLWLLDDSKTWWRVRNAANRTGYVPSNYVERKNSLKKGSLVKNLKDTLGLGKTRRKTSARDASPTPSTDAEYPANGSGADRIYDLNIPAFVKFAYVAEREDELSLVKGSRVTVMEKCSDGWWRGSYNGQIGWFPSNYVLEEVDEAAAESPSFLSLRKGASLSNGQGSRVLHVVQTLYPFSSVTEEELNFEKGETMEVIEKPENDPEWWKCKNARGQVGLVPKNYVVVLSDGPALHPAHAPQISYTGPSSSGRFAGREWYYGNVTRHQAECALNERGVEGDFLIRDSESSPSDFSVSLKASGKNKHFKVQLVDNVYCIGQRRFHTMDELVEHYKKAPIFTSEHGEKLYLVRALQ
UniProt O43291: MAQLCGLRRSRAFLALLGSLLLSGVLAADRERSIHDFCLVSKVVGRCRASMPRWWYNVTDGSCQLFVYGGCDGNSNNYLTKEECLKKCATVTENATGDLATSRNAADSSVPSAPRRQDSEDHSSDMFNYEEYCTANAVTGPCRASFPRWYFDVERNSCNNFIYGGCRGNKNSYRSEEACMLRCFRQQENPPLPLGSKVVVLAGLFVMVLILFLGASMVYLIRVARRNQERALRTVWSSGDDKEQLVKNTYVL
UniProt O15270: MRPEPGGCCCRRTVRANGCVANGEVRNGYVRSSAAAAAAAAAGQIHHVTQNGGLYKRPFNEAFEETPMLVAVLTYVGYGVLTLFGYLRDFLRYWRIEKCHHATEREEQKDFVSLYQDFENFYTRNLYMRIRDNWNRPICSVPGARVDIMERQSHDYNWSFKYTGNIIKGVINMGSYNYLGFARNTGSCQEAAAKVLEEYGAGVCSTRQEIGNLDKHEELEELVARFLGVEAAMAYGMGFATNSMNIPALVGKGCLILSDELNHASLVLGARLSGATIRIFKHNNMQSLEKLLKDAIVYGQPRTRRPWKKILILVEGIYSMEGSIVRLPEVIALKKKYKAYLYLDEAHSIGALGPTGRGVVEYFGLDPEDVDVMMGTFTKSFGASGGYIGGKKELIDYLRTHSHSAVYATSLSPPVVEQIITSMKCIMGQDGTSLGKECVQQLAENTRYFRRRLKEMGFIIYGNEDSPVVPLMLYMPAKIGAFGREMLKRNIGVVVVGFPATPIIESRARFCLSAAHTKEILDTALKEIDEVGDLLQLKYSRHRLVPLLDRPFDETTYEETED
UniProt O15056: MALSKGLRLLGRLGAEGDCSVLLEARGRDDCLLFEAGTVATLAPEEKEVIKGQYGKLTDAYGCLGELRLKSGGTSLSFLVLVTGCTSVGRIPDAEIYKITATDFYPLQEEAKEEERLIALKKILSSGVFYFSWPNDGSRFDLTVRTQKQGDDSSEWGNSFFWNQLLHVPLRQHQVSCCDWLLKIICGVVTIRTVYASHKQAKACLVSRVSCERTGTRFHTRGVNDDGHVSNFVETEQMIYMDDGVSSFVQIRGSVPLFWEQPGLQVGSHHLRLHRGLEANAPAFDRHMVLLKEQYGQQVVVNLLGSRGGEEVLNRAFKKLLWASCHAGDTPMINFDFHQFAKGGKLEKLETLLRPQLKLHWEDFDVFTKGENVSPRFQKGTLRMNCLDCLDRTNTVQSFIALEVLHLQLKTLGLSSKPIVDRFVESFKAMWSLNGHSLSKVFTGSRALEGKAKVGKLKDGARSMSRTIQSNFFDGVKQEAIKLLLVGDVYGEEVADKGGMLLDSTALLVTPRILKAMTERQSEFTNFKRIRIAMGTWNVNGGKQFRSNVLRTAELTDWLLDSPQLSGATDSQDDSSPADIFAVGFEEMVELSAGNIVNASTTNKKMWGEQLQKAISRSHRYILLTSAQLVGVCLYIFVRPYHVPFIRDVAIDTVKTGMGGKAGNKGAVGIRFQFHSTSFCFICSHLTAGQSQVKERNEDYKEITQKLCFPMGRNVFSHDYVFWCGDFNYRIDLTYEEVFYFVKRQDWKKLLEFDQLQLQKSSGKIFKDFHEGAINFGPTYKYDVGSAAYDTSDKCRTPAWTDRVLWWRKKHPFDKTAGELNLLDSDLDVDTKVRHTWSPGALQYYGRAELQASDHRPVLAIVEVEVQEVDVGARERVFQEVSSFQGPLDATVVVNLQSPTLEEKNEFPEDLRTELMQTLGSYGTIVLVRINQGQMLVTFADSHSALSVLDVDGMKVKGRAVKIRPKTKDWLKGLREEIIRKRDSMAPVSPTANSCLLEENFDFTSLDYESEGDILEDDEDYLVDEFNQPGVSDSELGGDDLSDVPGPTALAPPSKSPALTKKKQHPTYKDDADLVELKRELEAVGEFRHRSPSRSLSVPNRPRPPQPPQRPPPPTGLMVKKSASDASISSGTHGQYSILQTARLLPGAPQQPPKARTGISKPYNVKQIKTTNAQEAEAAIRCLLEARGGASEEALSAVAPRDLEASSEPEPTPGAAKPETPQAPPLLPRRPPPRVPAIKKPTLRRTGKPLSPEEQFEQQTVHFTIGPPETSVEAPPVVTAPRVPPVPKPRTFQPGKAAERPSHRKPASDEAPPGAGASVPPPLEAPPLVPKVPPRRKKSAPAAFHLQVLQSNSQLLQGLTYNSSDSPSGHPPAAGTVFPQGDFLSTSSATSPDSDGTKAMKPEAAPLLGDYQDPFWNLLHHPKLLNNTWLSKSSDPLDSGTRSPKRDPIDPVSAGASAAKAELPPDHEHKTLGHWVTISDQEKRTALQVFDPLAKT
UniProt O43592: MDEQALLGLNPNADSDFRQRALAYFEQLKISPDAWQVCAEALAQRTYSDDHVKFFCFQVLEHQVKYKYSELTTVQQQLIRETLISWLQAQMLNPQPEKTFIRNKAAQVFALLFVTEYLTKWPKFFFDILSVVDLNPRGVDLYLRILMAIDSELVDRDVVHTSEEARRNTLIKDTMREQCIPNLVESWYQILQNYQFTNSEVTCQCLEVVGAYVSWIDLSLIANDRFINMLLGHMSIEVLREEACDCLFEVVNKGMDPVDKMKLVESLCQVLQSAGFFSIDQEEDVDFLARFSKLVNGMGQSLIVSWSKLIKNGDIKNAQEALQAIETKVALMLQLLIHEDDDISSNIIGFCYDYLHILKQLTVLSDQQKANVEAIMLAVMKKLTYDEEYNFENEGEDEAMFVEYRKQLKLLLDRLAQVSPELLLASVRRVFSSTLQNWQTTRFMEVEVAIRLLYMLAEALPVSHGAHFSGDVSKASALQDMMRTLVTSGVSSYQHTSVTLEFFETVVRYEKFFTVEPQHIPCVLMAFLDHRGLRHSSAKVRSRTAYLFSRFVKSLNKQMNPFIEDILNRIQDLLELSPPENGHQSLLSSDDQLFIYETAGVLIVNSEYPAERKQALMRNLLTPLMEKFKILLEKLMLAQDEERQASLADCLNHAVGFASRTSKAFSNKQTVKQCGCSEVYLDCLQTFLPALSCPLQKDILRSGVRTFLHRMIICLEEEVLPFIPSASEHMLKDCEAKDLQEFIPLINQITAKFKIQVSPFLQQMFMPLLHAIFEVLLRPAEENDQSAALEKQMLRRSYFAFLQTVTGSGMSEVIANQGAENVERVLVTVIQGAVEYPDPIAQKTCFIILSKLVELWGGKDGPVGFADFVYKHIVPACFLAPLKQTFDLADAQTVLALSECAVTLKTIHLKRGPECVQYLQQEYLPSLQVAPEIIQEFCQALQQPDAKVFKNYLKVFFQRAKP
UniProt O14929: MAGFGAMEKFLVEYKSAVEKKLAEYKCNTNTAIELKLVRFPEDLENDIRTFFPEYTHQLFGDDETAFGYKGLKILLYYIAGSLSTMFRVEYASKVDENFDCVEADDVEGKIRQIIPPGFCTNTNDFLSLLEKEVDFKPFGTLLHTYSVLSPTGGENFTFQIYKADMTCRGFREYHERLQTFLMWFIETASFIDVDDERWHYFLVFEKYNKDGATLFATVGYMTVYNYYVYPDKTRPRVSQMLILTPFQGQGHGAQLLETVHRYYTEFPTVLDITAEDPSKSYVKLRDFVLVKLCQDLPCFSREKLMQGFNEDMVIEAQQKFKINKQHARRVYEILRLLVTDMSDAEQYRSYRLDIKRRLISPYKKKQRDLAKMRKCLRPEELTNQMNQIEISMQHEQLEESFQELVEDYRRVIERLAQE
UniProt O15541: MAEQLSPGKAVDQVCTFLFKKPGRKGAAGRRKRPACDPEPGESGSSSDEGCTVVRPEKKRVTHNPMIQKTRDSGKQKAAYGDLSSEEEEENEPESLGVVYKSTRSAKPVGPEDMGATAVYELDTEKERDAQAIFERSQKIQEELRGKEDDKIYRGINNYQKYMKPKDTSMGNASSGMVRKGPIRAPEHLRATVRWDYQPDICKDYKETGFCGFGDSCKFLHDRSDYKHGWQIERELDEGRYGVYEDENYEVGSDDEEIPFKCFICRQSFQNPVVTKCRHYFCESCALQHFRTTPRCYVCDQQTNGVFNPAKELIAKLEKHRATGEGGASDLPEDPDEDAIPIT
UniProt O43164: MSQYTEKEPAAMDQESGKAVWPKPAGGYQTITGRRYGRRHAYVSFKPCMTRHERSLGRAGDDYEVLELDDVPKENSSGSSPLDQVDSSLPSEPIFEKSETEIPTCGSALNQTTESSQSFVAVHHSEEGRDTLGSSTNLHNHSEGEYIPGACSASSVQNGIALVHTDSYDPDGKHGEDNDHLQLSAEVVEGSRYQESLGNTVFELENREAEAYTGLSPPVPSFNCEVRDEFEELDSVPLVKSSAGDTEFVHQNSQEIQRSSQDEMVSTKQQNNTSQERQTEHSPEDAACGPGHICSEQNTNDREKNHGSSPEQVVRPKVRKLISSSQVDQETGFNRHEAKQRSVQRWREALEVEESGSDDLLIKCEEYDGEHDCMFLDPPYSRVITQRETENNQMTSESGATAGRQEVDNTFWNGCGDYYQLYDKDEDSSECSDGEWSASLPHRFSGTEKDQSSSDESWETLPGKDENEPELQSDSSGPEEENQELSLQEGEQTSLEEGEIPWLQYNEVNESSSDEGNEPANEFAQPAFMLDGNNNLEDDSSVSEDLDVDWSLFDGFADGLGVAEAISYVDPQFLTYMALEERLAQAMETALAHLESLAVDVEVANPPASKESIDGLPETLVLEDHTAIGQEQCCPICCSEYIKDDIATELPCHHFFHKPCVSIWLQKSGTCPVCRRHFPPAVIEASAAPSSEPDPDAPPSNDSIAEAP
UniProt O15116: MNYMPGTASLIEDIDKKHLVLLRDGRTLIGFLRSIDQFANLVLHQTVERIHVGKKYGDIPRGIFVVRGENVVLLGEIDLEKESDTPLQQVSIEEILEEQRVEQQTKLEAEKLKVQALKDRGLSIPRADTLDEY
UniProt O43772: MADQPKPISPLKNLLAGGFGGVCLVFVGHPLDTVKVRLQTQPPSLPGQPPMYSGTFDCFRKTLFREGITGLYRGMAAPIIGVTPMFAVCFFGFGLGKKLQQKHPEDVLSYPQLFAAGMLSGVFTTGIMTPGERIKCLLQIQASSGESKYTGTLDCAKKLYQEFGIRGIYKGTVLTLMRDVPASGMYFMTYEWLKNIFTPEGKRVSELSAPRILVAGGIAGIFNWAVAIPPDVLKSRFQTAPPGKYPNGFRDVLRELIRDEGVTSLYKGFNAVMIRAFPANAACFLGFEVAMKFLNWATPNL
UniProt O43747: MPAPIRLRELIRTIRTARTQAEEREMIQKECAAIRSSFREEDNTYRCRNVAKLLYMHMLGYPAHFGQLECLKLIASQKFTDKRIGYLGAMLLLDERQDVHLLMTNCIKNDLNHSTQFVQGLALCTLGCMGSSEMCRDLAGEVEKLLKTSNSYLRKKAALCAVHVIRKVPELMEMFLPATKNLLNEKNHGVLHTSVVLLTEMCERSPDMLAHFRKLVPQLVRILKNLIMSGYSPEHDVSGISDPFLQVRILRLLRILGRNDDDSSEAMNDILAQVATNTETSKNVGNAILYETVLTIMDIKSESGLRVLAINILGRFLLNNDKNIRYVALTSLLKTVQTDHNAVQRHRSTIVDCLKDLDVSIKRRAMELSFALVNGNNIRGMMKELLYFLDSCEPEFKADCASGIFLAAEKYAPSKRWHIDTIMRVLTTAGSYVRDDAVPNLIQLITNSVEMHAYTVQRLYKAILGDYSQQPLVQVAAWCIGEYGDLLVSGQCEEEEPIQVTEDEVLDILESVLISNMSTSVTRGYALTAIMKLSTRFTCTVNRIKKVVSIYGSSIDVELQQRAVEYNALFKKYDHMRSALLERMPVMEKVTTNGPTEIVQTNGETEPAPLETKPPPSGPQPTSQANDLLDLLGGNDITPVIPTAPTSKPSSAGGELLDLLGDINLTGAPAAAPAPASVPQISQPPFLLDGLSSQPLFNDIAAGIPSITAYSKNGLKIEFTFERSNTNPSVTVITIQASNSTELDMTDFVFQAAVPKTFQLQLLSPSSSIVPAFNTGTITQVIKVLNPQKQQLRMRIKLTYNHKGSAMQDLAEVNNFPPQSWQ

Target | NP40-soluble protein abundance (concentration: 1mM) | NP40-soluble protein abundance (concentration: 2mM) | NP40-soluble protein abundance (concentration: 4mM) | NP40-soluble protein abundance (concentration: 6mM) | NP40-soluble protein abundance (concentration: 8mM) | NP40-soluble protein abundance (concentration: 10mM)
UniProt O14776 and related entries | 1.01 ± 0.042 | 1.05 ± 0.061 | 1.03 ± 0.045 | 1.1 ± 0.028 | 1.08 ± 0.038 | 1.11 ± 0.051
NCK2 (UniProt O43639) | 1.01 ± 0.021 | 0.975 ± 0.077 | 1.03 ± 0.06 | 0.987 ± 0.061 | 1.03 ± 0.067 | 0.992 ± 0.079
TRIM38 (UniProt O00635) | 1.08 ± 0.022 | 1.08 ± 0.06 | 1.07 ± 0.04 | 1.04 ± 0.019 | 1.03 ± 0.02 | 1.066 ± 0.01
UniProt O43291 | 1 ± 0.022 | 1.04 ± 0.029 | 1.014 ± 0.0041 | 0.994 ± 0.01 | 0.996 ± 0.0066 | 0.9952 ± 9.1e-05
SPTLC2 (UniProt O15270) | 0.978 ± 0.012 | 0.929 ± 0.098 | 0.987 ± 0.031 | 0.999 ± 0.042 | 1 ± 0.014 | 0.951 ± 0.019
UniProt O43504 | 1.06 ± 0.011 | 1.1 ± 0.043 | 1.09 ± 0.021 | 1.02 ± 0.011 | 1.01 ± 0.024 | 1.07 ± 0.067
SYNJ2 (UniProt O15056) | 0.979 ± 0.036 | 0.98 ± 0.03 | 0.989 ± 0.014 | 0.949 ± 0.016 | 0.963 ± 0.027 | 0.957 ± 0.029
XPOT (UniProt O43592) | 0.982 ± 0.03 | 0.966 ± 0.03 | 1.01 ± 0.022 | 1 ± 0.024 | 1.01 ± 0.049 | 1.02 ± 0.029
HAT1 (UniProt O14929) | 1 ± 0.062 | 0.918 ± 0.031 | 1.02 ± 0.073 | 1.02 ± 0.096 | 1.09 ± 0.075 | 1.01 ± 0.086
UniProt O43663 and related entries | 1.043 ± 0.0029 | 1.04 ± 0.041 | 1.08 ± 0.066 | 1.13 ± 0.051 | 1.17 ± 0.021 | 1.16 ± 0.052
RNF113A (UniProt O15541) | 1.02 ± 0.038 | 1.04 ± 0.089 | 0.999 ± 0.029 | 0.979 ± 0.017 | 0.935 ± 0.012 | 0.973 ± 0.035
K7ERP1 and related entries (UniProt Q9GZN7) | 0.963 ± 0.019 | 0.9762 ± 0.0061 | 0.9548 ± 0.0065 | 0.977 ± 0.027 | 0.961 ± 0.07 | 0.956 ± 0.032
PRMT5 (UniProt O14744) | 0.943 ± 0.022 | 0.875 ± 0.11 | 0.903 ± 0.042 | 0.878 ± 0.048 | 0.904 ± 0.055 | 0.858 ± 0.075
UniProt O43164 and related entries | 1.01 ± 0.034 | 1.07 ± 0.054 | 1.04 ± 0.034 | 0.987 ± 0.031 | 0.965 ± 0.04 | 0.999 ± 0.025
BCAT2 (UniProt O15382) | 0.984 ± 0.033 | 0.903 ± 0.098 | 0.954 ± 0.033 | 0.9262 ± 0.0036 | 0.969 ± 0.013 | 0.8996 ± 0.0065
UniProt O00165 and related entries | 0.973 ± 0.028 | 0.942 ± 0.037 | 0.965 ± 0.063 | 0.932 ± 0.087 | 0.906 ± 0.045 | 0.926 ± 0.073
K7EP59 and related entries (UniProt Q15831) | 1.0443 ± 0.00038 | 0.999 ± 0.029 | 1.04 ± 0.033 | 1.01 ± 0.044 | 1.015 ± 0.0066 | 1.03 ± 0.028
PIK3C2A (UniProt O00443) | 1 ± 0.017 | 1.03 ± 0.022 | 1.02 ± 0.047 | 1.09 ± 0.025 | 1.06 ± 0.038 | 1.06 ± 0.059
UniProt O43296 | 0.997 ± 0.018 | 0.956 ± 0.017 | 0.957 ± 0.007 | 0.954 ± 0.021 | 0.953 ± 0.03 | 0.947 ± 0.034
M0QZR4 (UniProt Q92888) | 1.011 ± 0.0025 | 1.03 ± 0.02 | 1.023 ± 0.0033 | 1.005 ± 0.0088 | 0.994 ± 0.0072 | 1.01 ± 0.012
LSM1 (UniProt O15116) | 0.913 ± 0.018 | 0.961 ± 0.041 | 0.921 ± 0.0096 | 0.918 ± 0.023 | 0.907 ± 0.011 | 0.897 ± 0.024
UniProt O00182 and related entries | 0.988 ± 0.029 | 0.965 ± 0.028 | 0.989 ± 0.038 | 0.988 ± 0.011 | 1.03 ± 0.023 | 0.994 ± 0.019
M0R2B7 and related entries (UniProt P28340) | 0.9433 ± 0.0024 | 0.859 ± 0.1 | 0.919 ± 0.031 | 0.9002 ± 0.0066 | 0.913 ± 0.015 | 0.862 ± 0.017
PDLIM1 (UniProt O00151) | 1.008 ± 0.0047 | 1.03 ± 0.029 | 0.998 ± 0.028 | 0.98 ± 0.022 | 0.959 ± 0.021 | 0.957 ± 0.046
SLC25A20 (UniProt O43772) | 0.986 ± 0.032 | 0.97 ± 0.012 | 0.972 ± 0.033 | 1.02 ± 0.085 | 1.05 ± 0.052 | 1.01 ± 0.011
UniProt O43747 and related entries | 0.934 ± 0.056 | 0.863 ± 0.03 | 0.932 ± 0.056 | 1 ± 0.12 | 1.01 ± 0.1 | 0.995 ± 0.072
SUPT5H (UniProt O00267) | 0.967 ± 0.02 | 0.969 ± 0.082 | 0.998 ± 0.015 | 1.05 ± 0.046 | 1.06 ± 0.046 | 1.05 ± 0.033
UniProt O15020 and related entries | 1.02 ± 0.019 | 1.04 ± 0.046 | 1.03 ± 0.023 | 1.01 ± 0.032 | 0.981 ± 0.029 | 1.02 ± 0.012
UniProt O00462 and related entries | 1.02 ± 0.037 | 1.02 ± 0.026 | 1.02 ± 0.026 | 1 ± 0.032 | 1.01 ± 0.018 | 1.02 ± 0.033
ARID1A (UniProt O14497) | 1.03 ± 0.061 | 1.07 ± 0.04 | 1.03 ± 0.039 | 1.02 ± 0.072 | 0.988 ± 0.051 | 1.03 ± 0.07

Exported with tabs: part of the list above.
Target	NP40-soluble protein abundance (concentration: 1mM)	NP40-soluble protein abundance (concentration: 2mM)	NP40-soluble protein abundance (concentration: 4mM)	NP40-soluble protein abundance (concentration: 6mM)	NP40-soluble protein abundance (concentration: 8mM)	NP40-soluble protein abundance (concentration: 10mM)
SPTLC2 (UniProt O15270)	0.978 ± 0.012	0.929 ± 0.098	0.987 ± 0.031	0.999 ± 0.042	1 ± 0.014	0.951 ± 0.019
M0QZR4 (UniProt Q92888)	1.011 ± 0.0025	1.03 ± 0.02	1.023 ± 0.0033	1.005 ± 0.0088	0.994 ± 0.0072	1.01 ± 0.012

Reference: the supplement of paper PMC6411743
